{"source": "paper PMC11719397", "about": "“Monophthalates of betulinic acid and related pentacyclic triterpenes inhibit efficiently the SOS-mediated nucleotide exchange and impact PI3K/AKT signaling in oncogenic K-RAS4B proteins” (RSC Advances, 2025)", "assay": "physchem"}
{"smiles": "COc1cc2nc(C)nc(N[C@H](C)c3cc(N)cc(C(F)(F)F)c3)c2cc1O[C@H]1CCOC1", "note": "[Compound 55, BI3406]", "values": [{"measurement": "solubility", "value": 277, "unit": "µM"}]}
